Data reported in the supplement of paper PMC3334620.
The full ranking holds about 33,000 sequences; the median of “E-score (-0.5 to 0.5)” is about -0.0059, and the highest 2% start at about 0.26. This is one part of the list.

The sequences below were run against T1, Cin5 (UniProt P40917) (assay: PBM E-score (8-mer binding enrichment) (E-score (-0.5 to 0.5)); higher = stronger / more preferred TF binding). Conditions: protein concentration: 100 nM; construct: GST-full length.
T1 sequence: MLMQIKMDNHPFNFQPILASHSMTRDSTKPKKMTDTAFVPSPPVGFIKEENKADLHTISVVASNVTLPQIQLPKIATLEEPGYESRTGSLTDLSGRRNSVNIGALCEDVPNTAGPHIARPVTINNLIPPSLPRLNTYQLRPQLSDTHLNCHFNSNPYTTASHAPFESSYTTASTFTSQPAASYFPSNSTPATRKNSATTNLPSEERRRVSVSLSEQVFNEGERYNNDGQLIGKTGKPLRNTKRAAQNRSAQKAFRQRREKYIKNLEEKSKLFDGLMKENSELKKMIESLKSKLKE
Summary of the method: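 Using PURExpress in vitro transcription/translation, GST-tagged yeast transcription factors were made in full-length or DNA-binding-domain form. These were applied at about 100-200 nM to double-stranded universal all-10-mer Agilent arrays, and bound protein was detected with fluorescent anti-GST. Scans were normalised with masliner before the Universal PBM Analysis Suite assigned E-scores to ungapped eight-base words pooled with their reverse complements.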

Row | Sequence | PBM E-score
1 | ACTTACTA | 0.108
2 | CTTTCTAA | 0.0224
3 | ATACCCCA | 0.233
4 | AGCGGCTC | -0.0582
5 | AATCTGGA | -0.00635
6 | GGCCATAA | 0.0497
7 | AATACATC | 0.209
8 | CCGGATAC | -0.118
9 | CGAGAGAG | -0.08
10 | CGAACGAG | -0.11
11 | GGCGGCCC | -0.358
12 | AACATTCA | 0.103
13 | GTCGTTGA | -0.0228
14 | CCATTAGG | -0.239
15 | AATACGAC | -0.0777
16 | CTGCTTAC | 0.402
17 | AGCCCACG | -0.118
18 | ACAACAGC | -0.0455
19 | CGCGTATC | 0.06
20 | ATTCCGGG | 0.181
21 | AGGTAATC | 0.313
22 | AGTTCTGA | 0.0771
23 | AAAGGGCA | -0.174
24 | CAACTTCA | 0.05
25 | TGGGAACA | -0.0454

Quoted at random: two entries already listed.
Row | Sequence | PBM E-score
14 | CCATTAGG | -0.239
12 | AACATTCA | 0.103

Later entries:

Row | Sequence | PBM E-score
26 | ATAAGACA | 0.105
27 | AAGGGAGT | -0.285
28 | CATGAAGA | -0.0234
29 | GTCCTATA | -0.0901
30 | AGACGAAG | -0.0255
31 | CGACGATA | -0.0915
32 | AAATGCAA | 0.0178
33 | AACGTGGA | 0.0162
34 | ACGCAAAG | 0.0785
35 | AAAGTCCT | -0.206
36 | ACGACTTG | -0.164
37 | GTGTCTAA | -0.197
38 | CCCTCGGC | -0.217
39 | GAGTCTCC | -0.0628
40 | CAAATCTA | 0.14
41 | GCAAACAC | 0.00753
42 | CGCGAACC | -0.129
43 | CGACAAAG | 0.167
44 | AAGTTTTC | 0.0824
45 | ATTCCTGC | 0.116
46 | CTGTTCTC | -0.109
47 | GCACTACC | -0.00786
48 | AAGCAGCG | 0.0586
49 | ACAGTCGA | -0.13
50 | GAATGAAC | 0.103

Reformatted as tab-separated lines: part of the list above
Row	Sequence	PBM E-score
28	CATGAAGA	-0.0234
29	GTCCTATA	-0.0901
30	AGACGAAG	-0.0255

(cont.)

Row | Sequence | PBM E-score
51 | AGGTAACA | 0.217
52 | GCAATCCC | 0.0378
53 | AAAAGAAA | 0.0291
54 | GAACCCGA | -0.0808
55 | CAGAACGC | -0.168
56 | GCACGCGA | 0.0461
57 | CTAAGTCC | -0.307
58 | CTCACTCC | -0.198
59 | GGGGTGAC | -0.0524
60 | CTGAGTTC | 0.114
61 | TACCCAAA | 0.00364
62 | CCGCAAAC | -0.0287
63 | ACACTATG | -0.0194
64 | GGGCAACC | -0.13
65 | ACTTGTAT | 0.0532
66 | AGCTCAAG | -0.174
67 | CTATAGGC | -0.0859
68 | CTTGAAAG | -0.17
69 | CCACCGAG | -0.0461
70 | GCGCGAGC | -0.0452
71 | CAACAATG | 0.066
72 | CGTTCCCA | -0.259
73 | CATATTTC | 0.0909
74 | CCGATTGC | 0.167
75 | GTGGACAC | -0.0447

Row | Sequence | PBM E-score
76 | CCCCATAG | -0.0251
77 | ATAGTCCA | 0.0934
78 | AGCATCAG | 0.0622
79 | CCGTCGAA | -0.0555
80 | ACGAGGTA | 0.0339
81 | AAATATTA | 0.315
82 | ATCAATCC | 0.192
83 | CACAGGCC | -0.173
84 | GGGCACAC | -0.165
85 | CATTTCGA | 0.17
86 | CTGGAATC | -0.0378
87 | TCATTGAA | -0.0998
88 | GAGCGGGA | -0.0794
89 | AAATTATA | 0.262
90 | CATCTGGC | -0.0931
91 | CCGGAAGG | -0.0218
92 | ACGTTGAG | 0.0678
93 | AAGCCAAA | 0.0201
94 | AACTATGC | 0.0893
95 | CTTTAACC | -0.0704
96 | ATAAACTG | 0.108
97 | CATAGCCC | -0.222
98 | TAGAATAA | 0.144
99 | CTTGGTGA | -0.0795
100 | AATTAAGC | 0.147

Row | Sequence | PBM E-score
101 | CCTGAGTA | 0.113
102 | CTCAGTAA | -0.0762
103 | CTGGCCGC | -0.128
104 | GAATAAGA | 0.089
105 | AGCGATGG | -0.142
106 | AAATGCTG | 0.0805
107 | GAGACTAC | -0.0932
108 | CCGAAAAC | -0.0641
109 | AAGACTGA | -0.0368
110 | AATGGTAG | 0.0654
111 | GACCACAA | -0.147
112 | GTCGCTGA | 0.02
113 | CCAATTAC | 0.218
114 | CATCAAGG | -0.0793
115 | GTACTAAC | 0.14
116 | ACATACAG | 0.117
117 | CTCCGTGA | -0.0456
118 | ACCTACAG | 0
119 | CTAACTGC | 0.0117
120 | CGCAGAGC | -0.131
121 | ATGCCCCC | -0.383
122 | AACCCCCC | -0.468
123 | GCATCTTA | 0.225
124 | ATCCCGCA | 0.135
125 | CCTATGCG | 0.0467

Row | Sequence | PBM E-score
126 | AACCGTCG | -0.152
127 | CATCGTGC | -0.106
128 | AAAAGCGA | 0.218
129 | GTCCTTGA | -0.234
130 | ATTATAAG | 0.188
131 | GCTTAGGA | -0.0288
132 | GAGGGCAC | -0.282
133 | CCATTACA | 0.223
134 | CGGAGCCA | -0.125
135 | ACCCTTTA | -0.0324
136 | ACGGCAAA | 0.0612
137 | AGCCCCCC | -0.435
138 | CAATATCG | 0.23
139 | ACTTTGGG | -0.0597
140 | AAGGTACG | -0.0381
141 | CAGACTGC | -0.105
142 | GTGAATGA | 0.1
143 | AGACCGCG | -0.0722
144 | ACTCGTAG | -0.149
145 | TCTAAGAA | 0.164
146 | ACAATTAC | 0.143
147 | GCCAGCGC | -0.252
148 | AACCCCTA | 0.0787
149 | ATACTTGA | -0.134
150 | AGAGATAG | 0.0512

Row | Sequence | PBM E-score
151 | GCCGGGCA | -0.129
152 | ACTGGTTG | -0.0672
153 | CCTATCAG | -0.059
154 | CAGATACC | -0.0906
155 | AGCCGATC | 0.0644
156 | ATCAACGG | 0.118
157 | AGTCAGAC | -0.0891
158 | GAAAATGC | -0.0017
159 | GCAATGCA | -0.053
160 | AGAGCCTG | -0.163
161 | CCACCTGG | -0.258
162 | ATTTGTGC | 0.00529
163 | ATGTTTCG | 0.195
164 | CGTGGTAA | -0.0555
165 | TAAGGAGA | -0.122
166 | ACCGCTAT | 0.0393
167 | ATCCACCG | 0.0187
168 | CCCTTGAA | -0.0161
169 | CCTCTTTC | -0.118
170 | GTCCACCA | -0.0928
171 | GCGTGAGC | 0.072
172 | CAGTTTGG | -0.0218

Some of the entries so far, with each value named:
CCCCATAG
  PBM E-score = -0.0251
ACCGCTAT
  PBM E-score = 0.0393
